Experimental data: PubChem BioAssay AID1259425 (University of Nebraska Medical Center, 2018)
The whole screen tested about 14,000 reagents; shown is an unselected part. Further read-outs or replicates are left out here. No sequences are given here. The record does not give: the time to read-out.

Aim: 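Find knockdowns that reproduce the gene expression pattern seen when KSR1 is lost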 (primary screen)
Cell system: HCT116 human colon cancer cells
Reagents: siRNA pool against human genes, 50 nM siRNA
Measurement: 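After 50 nM siRNA pool, branched-DNA assay measures six marker transcripts per well, minus blank, normalised to the geometric mean of two housekeeping transcripts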
Direction: BNIP3L mRNA: higher = more BNIP3L transcript after knockdown; NDRG1 mRNA: higher = more NDRG1 transcript after knockdown

What is on record for TCEAL3 (transcription elongation factor A like 3) [SID364004272]?
BNIP3L mRNA, set 1: 0.165; NDRG1 mRNA, set 1: 0.69

For CCND1 (cyclin D1) [SID364004434], how do the results read?
BNIP3L mRNA, set 1: 0.272; NDRG1 mRNA, set 1: 0.438

For MXD4 (MAX dimerization protein 4) [SID363997262], what was measured?
BNIP3L mRNA, set 1: 0.134; NDRG1 mRNA, set 1: 0.16

For ELAPOR1 [SID364001821], how do the results read?
BNIP3L mRNA, set 1: 0.128; NDRG1 mRNA, set 1: 0.411

How did the screen score DZIP3 (DAZ interacting zinc finger protein 3) [SID363999009]?
BNIP3L mRNA, set 1: 0.13; NDRG1 mRNA, set 1: 0.12

With USP6NL (USP6 N-terminal like) [SID363999034], how do the results read?
BNIP3L mRNA, set 1: 0.205; NDRG1 mRNA, set 1: 0.252

How did the screen score SLC8A2 [SID364005111]?
BNIP3L mRNA, set 1: 0.126; NDRG1 mRNA, set 1: 0.127

What is on record for GSK3B (glycogen synthase kinase 3 beta) [SID363993300]?
BNIP3L mRNA, set 1: 0.183; NDRG1 mRNA, set 1: 0.0485

Which result is listed for CPA3 (carboxypeptidase A3) [SID363993083]?
BNIP3L mRNA, set 1: 0.154; NDRG1 mRNA, set 1: 0.292

What is on record for IGDCC4 (immunoglobulin superfamily DCC subclass member 4) [SID364001916]?
BNIP3L mRNA, set 1: 0.113; NDRG1 mRNA, set 1: 0.0854

What is on record for OR2H1 (olfactory receptor family 2 subfamily H member 1) [SID364003475]?
BNIP3L mRNA, set 1: 0.32; NDRG1 mRNA, set 1: 0.239

For CCNDBP1 (cyclin D1 binding protein 1) [SID363998087], what does the deposit list?
BNIP3L mRNA, set 1: 0.216; NDRG1 mRNA, set 1: 0.435

With ZNF460 (zinc finger protein 460) [SID363997423], what does the deposit list?
BNIP3L mRNA, set 1: 0.11; NDRG1 mRNA, set 1: 0.25

What is on record for MTRR [SID363993631]?
BNIP3L mRNA, set 1: 0.0416; NDRG1 mRNA, set 1: 0.0886

3 consecutive entries from above:
OR2H1 (olfactory receptor family 2 subfamily H member 1) [SID364003475] → BNIP3L mRNA, set 1: 0.32; NDRG1 mRNA, set 1: 0.239
CCNDBP1 (cyclin D1 binding protein 1) [SID363998087] → BNIP3L mRNA, set 1: 0.216; NDRG1 mRNA, set 1: 0.435
ZNF460 (zinc finger protein 460) [SID363997423] → BNIP3L mRNA, set 1: 0.11; NDRG1 mRNA, set 1: 0.25

Continued:
What is on record for UCK2 (uridine-cytidine kinase 2) [SID363998346]?
BNIP3L mRNA, set 1: 0.155; NDRG1 mRNA, set 1: 0.158

With PPP1R2 (protein phosphatase 1 regulatory inhibitor subunit 2) [SID363997065], what was measured?
BNIP3L mRNA, set 1: 0.132; NDRG1 mRNA, set 1: 0.261

With MPP1 (MAGUK p55 scaffold protein 1) [SID363993614], what does the deposit list?
BNIP3L mRNA, set 1: 0.174; NDRG1 mRNA, set 1: 0.175

What is on record for SOAT2 (sterol O-acyltransferase 2) [SID363994658]?
BNIP3L mRNA, set 1: 0.11; NDRG1 mRNA, set 1: 0.203

For SFRP4 (secreted frizzled related protein 4) [SID363994163], what was measured?
BNIP3L mRNA, set 1: 0.0529; NDRG1 mRNA, set 1: 0.0463

What did the screen give for NBR1 (NBR1 autophagy cargo receptor) [SID363996768]?
BNIP3L mRNA, set 1: 0.109; NDRG1 mRNA, set 1: 0.0658

For CDON (cell adhesion associated, oncogene regulated) [SID364000286], how do the results read?
BNIP3L mRNA, set 1: 0.111; NDRG1 mRNA, set 1: 0.472

With MPST (mercaptopyruvate sulfurtransferase) [SID364002023], how do the results read?
BNIP3L mRNA, set 1: 0.154; NDRG1 mRNA, set 1: 0.175

How did the screen score ZBTB39 (zinc finger and BTB domain containing 39) [SID363999132]?
BNIP3L mRNA, set 1: 0.19; NDRG1 mRNA, set 1: 0.348

Which result is listed for CAPS (calcyphosine) [SID363995068]?
BNIP3L mRNA, set 1: 0.118; NDRG1 mRNA, set 1: 0.0683

For PADI4 (peptidyl arginine deiminase 4) [SID363998274], what does the deposit list?
BNIP3L mRNA, set 1: 0.0875; NDRG1 mRNA, set 1: 0.508

Which result is listed for ATF2 (activating transcription factor 2) [SID363993093]?
BNIP3L mRNA, set 1: 0.0737; NDRG1 mRNA, set 1: 0.15

For ERMARD (ER membrane associated RNA degradation) [SID364005575], what does the deposit list?
BNIP3L mRNA, set 1: 0.0711; NDRG1 mRNA, set 1: 0.113

What did the screen give for RHO (rhodopsin) [SID363991862]?
BNIP3L mRNA, set 1: 0.122; NDRG1 mRNA, set 1: 0.245
